This note sets out measurements from PubChem BioAssay AID1985 (Southern Research Specialized Biocontainment Screening …, 2009).

SMILES strings stand for the structures. pIC50: −log10 of the molar value.

The assay has as its system S. Typhi PhoP-promoter GFP reporter, fluorescence, 4 h. Put plainly: modified counter assay using GFP fluorescence, PhoP regulon inhibitor project, dose response (AID 1985).

For the compound `CNCCCC12CCC(c3ccccc31)c1ccccc12`, the pIC50 (commonly the IC50 on a negative log10 scale, so that one unit is a factor of ten) is 3.84.
